In paper PMC7819943, “Rice protein-binding microarrays: a tool to detect cis-acting elements near promoter regions in rice”:
The other results are listed elsewhere or left out.

Target: T1, OsSMF1 (Oryza sativa, UniProt Q6ZLB0 1-436)
T1 sequence: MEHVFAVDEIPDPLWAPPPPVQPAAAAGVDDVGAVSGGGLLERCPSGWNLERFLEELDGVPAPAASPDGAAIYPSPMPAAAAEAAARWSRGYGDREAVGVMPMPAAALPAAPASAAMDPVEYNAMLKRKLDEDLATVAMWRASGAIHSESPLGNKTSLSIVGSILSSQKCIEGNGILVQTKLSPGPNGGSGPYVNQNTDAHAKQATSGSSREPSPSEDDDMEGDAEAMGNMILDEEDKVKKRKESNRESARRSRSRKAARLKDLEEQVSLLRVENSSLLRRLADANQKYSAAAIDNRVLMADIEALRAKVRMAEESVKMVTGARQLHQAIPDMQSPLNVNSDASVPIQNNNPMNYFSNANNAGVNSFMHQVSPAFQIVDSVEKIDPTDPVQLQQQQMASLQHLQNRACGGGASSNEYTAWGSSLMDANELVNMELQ
Assay: protein-binding microarray (RPBM); PBS, 2% BSA, 51.3 ng/ul salmon testes DNA, 50 uM zinc acetate, 200 nM TF, 25 C, 1 h; high values mean tight binding
Details: protein: recombinant; tags: N-terminal polyhistidine and DsRed monomer fusion (pET32a); chain copies: 2; label: CyDye5-dUTP incorporated in the synthesized complementary strand; 3' TTTTT single-stranded linker to array surface; dsDNA, one strand shown
In short: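 In PBS with 2% BSA, salmon testes DNA and 50 µM zinc acetate, 200 nM protein was incubated on a custom Agilent array at 25 °C for 1 h and then washed off. The array had been made double-stranded by primer extension with Cy5-dUTP and blocked with 2% BSA. The proteins were transcription factors fused N-terminally to polyhistidine and DsRed, expressed in E. coli BL21-CodonPlus and purified on Ni–NTA. The binding signal is per-feature fluorescence intensity (arbitrary units) from an Axon 4000B scanner.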

Sequence | binding signal
AGCACTACCCAGCCACACAACCATAAGTCGTCTCTCAGTGCGGAGTCACCTAGTGCAG | 3840 fluorescence intensity (a.u.)
CGCCTTCTCCGCCTTCGTCAGCAGCCGCAGCTTCTCCACGCGGAGTCACCTAGTGCAG | 6050 fluorescence intensity (a.u.)
GACAAAGTCACACTGTCACACGTATTACCGGTTACAAACTCGGAGTCACCTAGTGCAG | 3940 fluorescence intensity (a.u.)
AGGAAGTACCTCCGTCCCAAAATGTTACAATATTTAGTTACGGAGTCACCTAGTGCAG | 27500 fluorescence intensity (a.u.)
CTGTGGCGTGCATCCGCAGAAATTCTCCACCAGCTCAGCCCGGAGTCACCTAGTGCAG | 4280 fluorescence intensity (a.u.)
CTTCCCTCTCCTCATCCGCGTAAGGCCATCATCCCCACGCCGGAGTCACCTAGTGCAG | 4070 fluorescence intensity (a.u.)
AGGGGATTGACAATTCGACATTGGCCAACTCTTTATCTGTCGGAGTCACCTAGTGCAG | 3230 fluorescence intensity (a.u.)
CGCCTCCTCTCCTCCTCTCCCGCCGCCTCGTCACGCCGACCGGAGTCACCTAGTGCAG | 6430 fluorescence intensity (a.u.)
TTTTGCTTAGCTGTTCTGTAATTGTCGATTTGAATTGGATCGGAGTCACCTAGTGCAG | 3500 fluorescence intensity (a.u.)
CGAAGGAGTGGTTGGTGTTGATCTCTCTCTCCTTGCTTTGCGGAGTCACCTAGTGCAG | 3330 fluorescence intensity (a.u.)
GACTTAACTTTAGTCCCTGTATTTAGACACTAATTTAGAGCGGAGTCACCTAGTGCAG | 65500 fluorescence intensity (a.u.)
ACGCGCGGTGGCTAGACGTGTGTCTCGTGGACACAGCTCCCGGAGTCACCTAGTGCAG | 3680 fluorescence intensity (a.u.)
TCCTACCACCACCTCCCGTACCACTCACTGACACGCGGGCCGGAGTCACCTAGTGCAG | 5660 fluorescence intensity (a.u.)
CCTTATCCTCATTCCTCCTCATCCAGTCATCCCCAACCTCCGGAGTCACCTAGTGCAG | 4680 fluorescence intensity (a.u.)
AACGCGTCTCAAGTCGATCTCAAACCCCACACACACAGCACGGAGTCACCTAGTGCAG | 29700 fluorescence intensity (a.u.)
GTTATTGTGGCACAGTGATGATATAATGTTGATTGGAGTGCGGAGTCACCTAGTGCAG | 3400 fluorescence intensity (a.u.)
AATGAAGAAGGGCTGACACGTACCTATATTCCGGGAACGACGGAGTCACCTAGTGCAG | 6180 fluorescence intensity (a.u.)
TAAGATCACCTATAGATATATCATTCCAAGTCATAGATTGCGGAGTCACCTAGTGCAG | 6060 fluorescence intensity (a.u.)
CATTATACTGTTCATAAACATGAATATCACAACCTGTTCTCGGAGTCACCTAGTGCAG | 21100 fluorescence intensity (a.u.)
ATTCCCCTCCAACAAATTGGGTCCCACGTGTCAATGGCTCCGGAGTCACCTAGTGCAG | 10200 fluorescence intensity (a.u.)
TGCCGGGAAGCCGACCGGCTGACAACGCCGTGCAGCCACTCGGAGTCACCTAGTGCAG | 3530 fluorescence intensity (a.u.)

Sequence | binding signal
GCCTCGTGTAACAGATGACAGAACATCGCGACCGTCCGTGCGGAGTCACCTAGTGCAG | 3670 fluorescence intensity (a.u.)
AACTACGTACGCACGCACATTTGAGTAAATTTGTACTTCCCGGAGTCACCTAGTGCAG | 22000 fluorescence intensity (a.u.)
GGCTGCCAACTCAGCCGGCCCACGCTCTCCGACACGTGGGCGGAGTCACCTAGTGCAG | 12700 fluorescence intensity (a.u.)
ATCTTTTGAGCCTAATTAGTCTATGATTAGTCATAAGTGTCGGAGTCACCTAGTGCAG | 3660 fluorescence intensity (a.u.)
ATTAGCCATAAGTGCTACAATAACCCACGTGTGTTAATGACGGAGTCACCTAGTGCAG | 5050 fluorescence intensity (a.u.)
AATGGTGGGCCCACGTGGGCCCCACATGTCATTCTCACCCCGGAGTCACCTAGTGCAG | 4980 fluorescence intensity (a.u.)
GGACGGGCTAACACGTCGTTATCCAGTCGAGCTAACAGGTCGGAGTCACCTAGTGCAG | 24100 fluorescence intensity (a.u.)
CTGAACTGGTTCGTTTCTAATTGACTGTGTTTGTTTGTTTCGGAGTCACCTAGTGCAG | 4590 fluorescence intensity (a.u.)
ACACGACACAACCTACACGTGCCAGGCCGTGCCAGTCCACCGGAGTCACCTAGTGCAG | 3580 fluorescence intensity (a.u.)
TGGGCTAAGCGGTGGTGTATGGCGTCAGCTCACTTCAAGCCGGAGTCACCTAGTGCAG | 6480 fluorescence intensity (a.u.)
GAAGGAATTGGATTGAATCAGAAAGGGGATCGATTCGATGCGGAGTCACCTAGTGCAG | 45200 fluorescence intensity (a.u.)
TTACAGGTGTTGTCATTTTATGTGACCGGTCAGACCGGGCCGGAGTCACCTAGTGCAG | 4510 fluorescence intensity (a.u.)
GTCGATGGCCACGATTGGCTATTTCTAGTGGCCTATGGGGCGGAGTCACCTAGTGCAG | 3930 fluorescence intensity (a.u.)
GGCCAGCCGTGTAGGCGGAGGCACCACTCGGCGGCGACGGCGGAGTCACCTAGTGCAG | 49900 fluorescence intensity (a.u.)
GCACCACAGCCACATCCTTATGATCATTGGCAGGGTGTTCCGGAGTCACCTAGTGCAG | 3220 fluorescence intensity (a.u.)
GCGAGCTGTATGTACGTCATACGGCAGCAGCAATTCACGCCGGAGTCACCTAGTGCAG | 8200 fluorescence intensity (a.u.)
GAAAGAAACTCCTAACCTTTCTTGTCGACGCAGTGGTCGTCGGAGTCACCTAGTGCAG | 3550 fluorescence intensity (a.u.)
ACTCCGGTTTTATCCGACGTGGCAGCTGACTCAGCATGGGCGGAGTCACCTAGTGCAG | 44300 fluorescence intensity (a.u.)
AATAAGTAGTTGGTGATACGTGTTAGCCACGAGGCATATACGGAGTCACCTAGTGCAG | 4020 fluorescence intensity (a.u.)
TGTTTATTGGCTTTGTCATATGATAAATGAATTAATTGTTCGGAGTCACCTAGTGCAG | 30500 fluorescence intensity (a.u.)
GATATATGACACAAGAAAATCGTGGCAATTTAGAATTGGACGGAGTCACCTAGTGCAG | 3500 fluorescence intensity (a.u.)

2 consecutive records out of the list so far, for reference:
Sequence | binding signal
CTGAACTGGTTCGTTTCTAATTGACTGTGTTTGTTTGTTTCGGAGTCACCTAGTGCAG | 4590 fluorescence intensity (a.u.)
ACACGACACAACCTACACGTGCCAGGCCGTGCCAGTCCACCGGAGTCACCTAGTGCAG | 3580 fluorescence intensity (a.u.)
